Results are given in words; binding and its absence hold for the method and conditions named. In cells and extracts the contact can be indirect. Some results given as binding are weak or reduced against the parent protein; the word gives no strength.
Experiments:
[1] = biological target: Phosphatidylinositol-4-phosphate 5-kinase type 1 alpha (PIP5K1A), endogenous (human (endogenous in HEK293)) (UniProt Q99755); experiment: co-IP; endogenous PIP5K1A immunoprecipitated from HEK293 cell lysate with anti-PIP5K1A (pre-conjugated with protein A magnetic beads), overnight at 4°C; XPO5 detected by immunoblot; normal IgG as negative control
[2] = biological target: HA-KAP1 (KRAB-associated protein) (UniProt Q13263); experiment: co-IP; cells transfected with the HA-tagged bait, lysed 48 h later in IP lysis buffer; anti-HA magnetic beads overnight at 4°C; PIP5K1A detected by immunoblot; normal IgG as negative control
[3] = biological target: HA-XPO5 (N-terminus tagged) (human) (UniProt Q9HAV4); experiment: as above

Chains of the proteins cited; added tags and fusions are not shown.
UniProt Q99755: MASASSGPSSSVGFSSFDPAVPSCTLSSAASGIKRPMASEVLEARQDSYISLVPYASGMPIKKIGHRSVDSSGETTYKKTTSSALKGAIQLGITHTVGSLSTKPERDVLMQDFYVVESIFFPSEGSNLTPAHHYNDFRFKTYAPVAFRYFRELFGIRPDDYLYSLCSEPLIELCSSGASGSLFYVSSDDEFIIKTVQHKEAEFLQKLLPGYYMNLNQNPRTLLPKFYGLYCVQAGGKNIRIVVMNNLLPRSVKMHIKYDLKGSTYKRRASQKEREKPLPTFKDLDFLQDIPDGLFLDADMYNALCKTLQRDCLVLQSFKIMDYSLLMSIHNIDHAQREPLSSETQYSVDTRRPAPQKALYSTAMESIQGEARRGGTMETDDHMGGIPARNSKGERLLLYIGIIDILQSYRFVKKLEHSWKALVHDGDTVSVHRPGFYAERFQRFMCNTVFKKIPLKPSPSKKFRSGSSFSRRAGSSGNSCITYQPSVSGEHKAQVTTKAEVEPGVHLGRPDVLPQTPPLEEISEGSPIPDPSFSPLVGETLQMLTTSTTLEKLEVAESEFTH
UniProt Q13263: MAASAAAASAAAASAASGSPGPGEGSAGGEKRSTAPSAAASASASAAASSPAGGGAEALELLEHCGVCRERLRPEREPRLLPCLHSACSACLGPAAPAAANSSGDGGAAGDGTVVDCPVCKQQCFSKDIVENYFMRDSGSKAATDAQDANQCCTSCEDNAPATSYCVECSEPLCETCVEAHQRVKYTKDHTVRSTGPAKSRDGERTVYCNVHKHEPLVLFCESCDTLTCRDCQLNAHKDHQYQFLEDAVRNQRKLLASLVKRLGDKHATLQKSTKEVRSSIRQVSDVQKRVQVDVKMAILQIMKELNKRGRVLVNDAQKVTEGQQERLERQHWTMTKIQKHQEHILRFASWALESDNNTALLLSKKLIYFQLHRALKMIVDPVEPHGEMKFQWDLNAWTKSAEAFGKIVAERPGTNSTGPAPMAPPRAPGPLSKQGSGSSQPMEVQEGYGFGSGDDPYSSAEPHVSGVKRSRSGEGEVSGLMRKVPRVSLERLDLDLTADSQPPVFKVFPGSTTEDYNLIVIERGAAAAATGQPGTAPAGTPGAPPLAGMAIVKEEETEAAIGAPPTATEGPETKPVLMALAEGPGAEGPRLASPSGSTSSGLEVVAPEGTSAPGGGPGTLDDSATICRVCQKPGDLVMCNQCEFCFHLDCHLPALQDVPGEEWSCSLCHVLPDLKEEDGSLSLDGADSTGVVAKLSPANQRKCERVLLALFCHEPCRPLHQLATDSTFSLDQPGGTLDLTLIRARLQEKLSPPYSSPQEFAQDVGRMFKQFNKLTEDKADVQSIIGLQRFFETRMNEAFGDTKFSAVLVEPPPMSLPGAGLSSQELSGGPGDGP
UniProt Q9HAV4: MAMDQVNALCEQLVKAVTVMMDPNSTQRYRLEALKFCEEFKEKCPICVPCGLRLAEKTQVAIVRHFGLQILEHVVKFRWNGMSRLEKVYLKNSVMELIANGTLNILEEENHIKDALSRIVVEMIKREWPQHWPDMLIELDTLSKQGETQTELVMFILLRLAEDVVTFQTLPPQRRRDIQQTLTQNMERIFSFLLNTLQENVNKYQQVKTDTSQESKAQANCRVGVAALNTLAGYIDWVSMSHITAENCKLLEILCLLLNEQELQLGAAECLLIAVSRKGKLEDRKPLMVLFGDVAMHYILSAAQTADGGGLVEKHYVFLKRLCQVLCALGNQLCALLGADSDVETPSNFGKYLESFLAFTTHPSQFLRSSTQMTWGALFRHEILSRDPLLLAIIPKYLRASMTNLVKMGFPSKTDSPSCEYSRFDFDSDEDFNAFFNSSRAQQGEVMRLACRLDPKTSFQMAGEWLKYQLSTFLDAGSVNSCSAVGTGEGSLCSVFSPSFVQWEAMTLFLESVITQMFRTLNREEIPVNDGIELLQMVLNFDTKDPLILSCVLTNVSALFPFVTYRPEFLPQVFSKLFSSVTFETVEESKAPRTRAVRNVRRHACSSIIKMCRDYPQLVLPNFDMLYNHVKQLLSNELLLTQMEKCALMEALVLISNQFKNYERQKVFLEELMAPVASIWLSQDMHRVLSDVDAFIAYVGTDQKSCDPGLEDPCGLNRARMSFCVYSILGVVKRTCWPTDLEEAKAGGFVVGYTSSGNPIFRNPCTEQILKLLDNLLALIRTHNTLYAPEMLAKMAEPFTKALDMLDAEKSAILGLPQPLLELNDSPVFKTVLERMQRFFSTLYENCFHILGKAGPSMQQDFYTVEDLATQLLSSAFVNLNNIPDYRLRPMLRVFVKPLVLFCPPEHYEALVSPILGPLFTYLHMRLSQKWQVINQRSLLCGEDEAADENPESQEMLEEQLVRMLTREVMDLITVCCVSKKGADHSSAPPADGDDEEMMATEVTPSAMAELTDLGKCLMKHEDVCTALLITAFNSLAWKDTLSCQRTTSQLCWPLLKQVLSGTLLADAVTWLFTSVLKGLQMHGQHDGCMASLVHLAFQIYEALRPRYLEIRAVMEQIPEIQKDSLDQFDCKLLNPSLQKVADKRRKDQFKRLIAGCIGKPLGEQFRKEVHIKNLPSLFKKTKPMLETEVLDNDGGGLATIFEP

| binding [1] | binding [2] | binding [3] | Substance |
| --- | --- | --- | --- |
| binds | – | – | Exportin 5 (XPO5), endogenous (from UniProt Q9HAV4 1-1204) |
| – | no binding | binds | Phosphatidylinositol-4-phosphate 5-kinase type 1 alpha (PIP5K1A), endogenous (from UniProt Q99755 1-562) (enzyme) |

Source: paper PMC10570020
